Legend:
[1] = ^203Pb radiolabeling studies (radio-iTLC); settings: room temperature, pH 7, 1 h, n = 3
[2] = ^212Pb radiolabeling studies (radio-iTLC); settings: room temperature, pH 7, 1 h, n = 3

Row | Structure (SMILES) | ^203Pb radiochemical yield (RCY) ([1]; chelator 10^-4 M) [%] | ^203Pb radiochemical yield (RCY) ([1]; chelator 10^-5 M) [%] | ^203Pb radiochemical yield (RCY) ([1]; chelator 10^-6 M) [%] | ^203Pb radiochemical yield (RCY) ([1]; chelator 10^-7 M) [%] | ^212Pb radiochemical yield (RCY) ([2]; chelator 10^-4 M) [%] | ^212Pb radiochemical yield (RCY) ([2]; chelator 10^-5 M) [%] | ^212Pb radiochemical yield (RCY) ([2]; chelator 10^-6 M) [%] | ^212Pb radiochemical yield (RCY) ([2]; chelator 10^-7 M) [%]
1 | O=C(O)CN1CCN(CC(=O)O)CCN(Cc2ccccn2)CCN(CC(=O)O)CC1 [DOTA-1Py, 2,2′,2″-(10-(pyridin-2-ylmethyl)-1,4,7,10-tetraazacyclododecane-1,4,7-triyl) triacetic acid] | 97.0 ± 0.3 | 80.6 ± 6.6 | 7.7 ± 5.0 | 1.1 ± 0.2 | 97.0 ± 0.9 | 96.8 ± 0.6 | 13.0 ± 3.1 | 4.6 ± 1.1
2 | NC(=O)CN1CCN(CC(N)=O)CCN(CC(N)=O)[C@@H](Cc2ccc(N=C=S)cc2)CN(CC(N)=O)CC1 [p-SCN-Bn-TCMC, reference compound] | 97.2 ± 0.6 | 96.9 ± 0.6 | 43.7 ± 1.0 | 3.7 ± 0.4 | 97.8 ± 0.4 | 98.1 ± 0.5 | 80.8 ± 8.9 | 13.9 ± 1.6
3 | O=C(O)CN1CCN(CC(=O)O)CCN(Cc2ccccn2)CCN(Cc2ccccn2)CC1 [DOTA-2Py, 2,2′-(7,10-bis (pyridin-2-ylmethyl)-1,4,7,10-tetraazacyclododecane-1,4-diyl) diacetic acid] | 97.6 ± 0.3 | 87.6 ± 0.3 | 1.7 ± 0.6 | 1.2 ± 0.3 | 96.9 ± 0.8 | 97.4 ± 0.6 | 5.0 ± 0.4 | 3.7 ± 0.8
4 | O=C(O)CN1CCN(Cc2ccccn2)CCN(Cc2ccccn2)CCN(Cc2ccccn2)CC1 [DOTA-3Py, 2-(4,7,10-tris (pyridin-2-ylmethyl)-1,4,7,10-tetraazacyclododecan-1-yl) acetic acid] | 97.7 ± 0.5 | 80.6 ± 6.6 | 27.2 ± 1.56 | 1.7 ± 0.1 | 97.6 ± 0.7 | 97.0 ± 0.1 | 26.9 ± 3.6 | 
5 | O=C(O)CN1CCN(CC(=O)O)CCN(CC(=O)O)CCN(CC(=O)O)CC1 [DOTA, 1,4,7,10-tetraazacyclododecane-1,4,7,10-tetraacetic acid, reference compound] | 96.1 ± 1.0 | 75.8 ± 9.4 | 3.0 ± 0.8 | 1.5 ± 0.2 | 97.6 ± 0.1 | 96.5 ± 0.8 | 4.3 ± 1.2 | 3.6 ± 0.5

Source: publication PMC7851237, “Production, purification, and radiolabeling of the ^203Pb/^212Pb theranostic pair” (EJNMMI Radiopharmacy and Chemistry, 2021)
